Assay results as given in PubChem BioAssay AID1487 (National Center for Advancing Translational Sciences (NCATS), 2009).
The list shows a part of the results. These are further read-outs of the screen, such as a control signal, another cell line or another target. No call is given for them. The list favours compounds with an active or inconclusive main result. Potencies come from curve fits of mixed quality, noted in brackets.

Test: qHTS Assay for Modulators of Lamin A Splicing
Conditions: HeLa LMNA splicing GFP/RFP minigene ratio, 48 h
Method in brief: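 S3 HeLa cells stably expressing lamin A-EGFP splicing minigene plus DsRed2, 600 cells/well, 48 h compound exposure at 37C. Laser-scanning cytometry; analysed as GFP (500-530 nm)/RFP (575-640 nm) total intensity ratio; 0.5% DMSO vehicle.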

[1] = measured here: GFP splicing reporter channel
[2] = measured here: RFP viability control channel

| SMILES | AC50 [1] | AC50 [2] |
| --- | --- | --- |
| COc1ccc(C2CC(c3ccc4ccccc4c3)=NN2C(=O)CN2C(=O)CCC2=O)cc1 (configuration not stated) | 14.1 µM [falling, partial curve, poor fit] |  |
| CCc1ccc(OCC(=O)NC(NC(=S)Nc2ccccc2C)C(Cl)(Cl)Cl)cc1 (configuration not stated) |  | 7.94 µM [rising, partial curve] |
| CCN(CC)CCNC(=O)c1sc2ncccc2c1-n1cccc1 | 0.00316 µM [falling, full curve, poor fit] |  |
| Cc1nc(/C=C/c2ccccc2)[nH]c(=O)c1-c1ccccc1 |  | 3.55 µM [rising, partial curve] |
| COc1cc2c(cc1OC)C1=C(C#N)CCC(=NC(=O)c3ccc(Cl)cc3)N1CC2 | 3.98 µM [rising, full curve, poor fit] | 3.16 µM [rising, single point] |
| CC(=O)Nc1ccc(SCC(=O)Nc2ccccc2-c2ccccc2)cc1 |  | 15.8 µM [rising, partial curve] |
| CC(=O)c1cccc(NC(=O)CN(Cc2ccccc2)S(C)(=O)=O)c1 | 15.8 µM [rising, single point] |  |
| COc1ccc(Oc2nc(-c3ccccn3)ncc2OC)cc1 |  | 8.91 µM [rising, partial curve] |
| O=C(NCCC(c1ccccc1)c1ccccc1)c1cnccn1 |  | 35.5 µM [rising, single point] |
| O=C(Nc1ccc([N+](=O)[O-])cc1)c1cc(-c2ccccn2)nc2c(Cl)cccc12 |  | 15.8 µM [falling, single point] |
| O=C(Nc1nc2ccc(C(=O)N3CCCCC3)cc2s1)C1CCCCC1 | 7.08 µM [falling, partial curve, poor fit] | 22.4 µM [falling, partial curve, poor fit] |
| Cc1onc(-c2ccccc2)c1C(=O)Nc1nnc(N2CCCCCC2)s1 |  | 20 µM [rising, partial curve, poor fit] |
| CN(C)c1ccc(C(=O)/C=C/c2ccco2)cc1 |  | 1 µM [rising, partial curve, poor fit] |
| COc1cccc(CN2CCNC(=O)C2CC(=O)NCc2cn3cccc(C)c3n2)c1OC (configuration not stated) | 0.794 µM [rising, single point] |  |
| COc1ccc(OCC(=O)NNC(=O)c2c(-c3ccccc3Cl)noc2C)cc1 | 0.02 µM [rising, full curve, poor fit] | 0.0316 µM [rising, full curve, poor fit] |
| OCCNc1c2ccccc2nc2ccccc12 | 2 µM [falling, partial curve] | 15.8 µM [falling, partial curve, poor fit] |
| COc1ccc(S(=O)(=O)N(C)c2ccc(OCC(=O)Nc3cc(C)on3)cc2)cc1 | 11.2 µM [rising, single point] | 11.2 µM [rising, single point] |
| CCN(CC)C(=O)N1CCN(Cc2ccc3c(c2)OCO3)CC1 | 5.01 µM [falling, single point] |  |
| CN(C)S(=O)(=O)c1cc(C(=O)NCCCn2ccc3ccccc32)ccc1Cl | 2.24 µM [rising, partial curve] |  |
| CCOC(=O)c1ccc(N2C(=O)c3n[nH]c(C)c3C2c2ccc(O)cc2)cc1 (configuration not stated) |  | 22.4 µM [rising, single point] |
| CCOC(=O)c1ccc(NS(=O)(=O)c2ccc3[nH]c4c(c3c2)CCCCC4)cc1 | 15.8 µM [falling, single point] | 22.4 µM [falling, single point] |
| O=C(NCc1ccco1)C(c1cccs1)N(Cc1ccccc1)C(=O)Cn1nnc2ccccc21 (configuration not stated) |  | 5.62 µM [rising, single point] |
| CCN(CC)S(=O)(=O)c1cc(C(=O)OCC(=O)c2ccc3c(c2)NC(=O)CO3)ccc1Cl | 3.98 µM [rising, single point] | 10 µM [rising, partial curve] |
| COc1ccc(C2CC(c3c(O)cc(C)oc3=O)=NCCS2)c(OC)c1 (configuration not stated) | 15.8 µM [falling, partial curve, poor fit] | 4.47 µM [rising, partial curve] |
| CCC(=O)c1c(O)cc(O)cc1O | 22.4 µM [falling, single point] |  |
| Fc1ccc(F)c(C2=NNC(=Nc3ccccc3F)SC2)c1 | 3.55 µM [rising, partial curve, poor fit] | 15.8 µM [rising, partial curve, poor fit] |
| O=C(Nc1nc(-c2ccccn2)cs1)c1ccc(Cl)s1 |  | 0.891 µM [rising, full curve] |

| SMILES | AC50 [1] | AC50 [2] |
| --- | --- | --- |
| Cc1ccc(C(=O)N2CCc3ccccc32)cc1NC(=O)c1ccco1 |  | 1.26 µM [falling, full curve] |
| COc1ccc(CNc2oc(-c3ccc(COc4ccc(OC)cc4)o3)nc2C#N)cc1 | 5.01 µM [rising, full curve] | 8.91 µM [rising, partial curve] |
| S=C(NCc1cccnc1)Nc1ccc(Cl)c(Cl)c1 | 10 µM [rising, partial curve] | 12.6 µM [rising, partial curve] |
| O=C(CSc1nc2ccncc2[nH]1)Nc1ccccc1C(F)(F)F | 11.2 µM [rising, partial curve, poor fit] | 15.8 µM [rising, partial curve] |
| Cc1c(NC(NC(=O)CC(C)C)C(Cl)(Cl)Cl)c(=O)n(-c2ccccc2)n1C (configuration not stated) | 20 µM [falling, partial curve, poor fit] | 0.0178 µM [falling, full curve] |
| OCC1O[C@H](O)C(Cl)C(O)C1O (some centres not stated) |  | 0.01 µM [rising, full curve, poor fit] |
| CCOC(=O)c1oc2ccccc2c1NC(=O)c1cccc(OC)c1OC |  | 35.5 µM [rising, single point] |
| COc1ccc(CCNc2cc(N3CCN(C(=O)c4ccc(C)cc4)CC3)ccc2[N+](=O)[O-])cc1OC |  | 0.794 µM [rising, full curve] |
| O=C(CSc1ccc2c(c1)OCCO2)Nc1ccc(Cl)cn1 | 35.5 µM [rising, single point] | 35.5 µM [rising, single point] |
| c1ccc2c(c1)OCC(c1csc3ncnc(N4CCOCC4)c13)O2 (configuration not stated) |  | 35.5 µM [falling, partial curve, poor fit] |
| Cc1ccc(-c2nn(-c3ccccc3)cc2C=C2C(=O)CC(C)(C)CC2=O)cc1 | 11.2 µM [falling, partial curve, poor fit] |  |
| Cc1ccc2cc(COC(=O)C3CCCO3)c(=O)[nH]c2c1 (configuration not stated) | 11.2 µM [falling, partial curve, poor fit] | 4.47 µM [falling, partial curve, poor fit] |
| CCCCCCCCCCCNC(=O)c1ccoc1C | 15.8 µM [rising, single point] | 22.4 µM [rising, single point] |
| CSc1nc(Oc2ccc3ccccc3c2)c2sccc2n1 | 35.5 µM [falling, single point] |  |
| CCCN1CCc2nc(N3CCN(c4ncccn4)CC3)ncc2C1 | 0.631 µM [rising, full curve, poor fit] | 0.794 µM [rising, full curve, poor fit] |
| Cc1nc2cc(-c3ccccc3)nn2c(C)c1CCC(=O)NC(C)c1ccc2c(c1)OCCO2 (configuration not stated) | 35.5 µM [rising, single point] | 35.5 µM [rising, single point] |
| COc1ccc(CCN2C(=O)C3C4C=CC(C3C2=O)C2C(=O)N(CCc3ccc(OC)c(OC)c3)C(=O)C42)cc1OC (configuration not stated) | 7.94 µM [rising, partial curve] | 5.01 µM [rising, full curve] |
| Cc1sc(NC(=O)Cc2ccc3c(c2)OCO3)nc1-c1ccc2c(c1)CCN2C(=O)c1ccc(F)cc1 | 5.62 µM [rising, partial curve] | 6.31 µM [rising, full curve] |
| Cc1ccc2c(=O)c(C(=O)c3ccc(F)cc3)cn(CC(=O)NCCc3ccccc3)c2n1 | 11.2 µM [falling, partial curve, poor fit] |  |
| O=[N+]([O-])c1ccc(C(=S)N2CCC(Cc3ccccc3)CC2)cc1 | 10 µM [rising, partial curve, poor fit] | 12.6 µM [rising, partial curve] |
| O=[N+]([O-])c1ccc(O)c(/C=N/Nc2nc3ccccc3[nH]2)c1 |  | 3.16 µM [rising, full curve] |
| CCCC(=O)Nc1ccc(C(=O)/C=C/c2ccc(SC)cc2)cc1 | 14.1 µM [falling, single point] | 20 µM [falling, partial curve] |
| O=C1CNC(=O)N1CC(O)Cn1c2ccccc2c2ccccc21 (configuration not stated) |  | 0.0447 µM [rising, full curve, poor fit] |
| CC(Sc1nc2c(cc1C#N)CCCCC2)C(=O)O (configuration not stated) | 39.8 µM [falling, partial curve, poor fit] |  |
| Cc1cccc(Oc2ccc(S(=O)(=O)N3CCCCC3)cc2N)c1 | 17.8 µM [falling, single point] |  |
| O=S(=O)(c1cccs1)N1CCN(CC(O)COc2cc(Cl)ccc2Cl)CC1 (configuration not stated) | 35.5 µM [rising, single point] | 0.794 µM [rising, full curve, poor fit] |
| Cn1cc([N+](=O)[O-])c(C(=O)Nc2ccn(Cc3c(F)c(F)cc(F)c3F)n2)n1 | 35.5 µM [falling, single point] |  |

Single records, as listed above:
c1ccc2c(c1)OCC(c1csc3ncnc(N4CCOCC4)c13)O2 (configuration not stated) as listed: AC50 [2]: 35.5 µM [falling, partial curve, poor fit]
Cn1cc([N+](=O)[O-])c(C(=O)Nc2ccn(Cc3c(F)c(F)cc(F)c3F)n2)n1 as listed: AC50 [1]: 35.5 µM [falling, single point]
